Measured values as given in patent US20180057581A1.
Where a chain is given by its changes, count along the chain named. No constants are given. Whether binding was seen depends on the method and setting. Some results given as binding are weak or reduced against the parent protein; the word gives no strength. Blank lines part the entries; values can stand above or below the binder they belong to.

Legend:
human M-CSF (human) = human M-CSF (human) (UniProt P09603); assay: SET, Fab
[1] = target: T1, Recombinant cynomolgus monkey sgM-CSF (cynomolgus (Macaca fascicularis)); assay: SET, Fab
T1 sequence: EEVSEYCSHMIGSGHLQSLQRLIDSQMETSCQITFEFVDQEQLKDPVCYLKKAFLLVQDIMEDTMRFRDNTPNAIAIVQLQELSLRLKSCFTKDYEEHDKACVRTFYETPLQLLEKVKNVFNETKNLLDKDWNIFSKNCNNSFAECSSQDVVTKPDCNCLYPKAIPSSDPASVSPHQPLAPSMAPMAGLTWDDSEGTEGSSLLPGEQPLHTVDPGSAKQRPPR

binding (human M-CSF (human)): binds
B1: HeRX1-10G1, Fab (Fab, V domains shown)
VH: QVQLQESGPGLVKPSQTLSLTCTVSDYSITSDYAWNWIRQFPGKGLEWMGYISYSGSTSYNPSLKSRITISRDTSKNQFSLQLNSVTAADTAVYYCASFDYAHAMDYWGQGTTVTVSS
VL: DIVLTQSPAFLSVTPGEKVTFTCQASQSIGTSIHWYQQKTDQAPKLLIKYASESISGIPSRFSGSGSGTDFTLTISSVEAEDAADYYCQQINSWPTTFGGGTKLEIKR

binding (human M-CSF (human)): binds
B2: Romaine, Fab (Fab, V domains shown)
VH: EVQLVESGGGLVKPGGSLRLSCAASGFTFSIYAMSWVRQAPGKGLEWVGRIKSNADGGTTEYAAPVKGRFTISRDDSKNTLYLQMNSLKTEDTAVYYCARMRYYSDLYFDPWGQGTLVTVSS
VL: DIELTQPPSVSVSPGQTASITCSGDAIGSKYVHWYQQKPGQAPVLVISKDNKRPSGIPERFSGSNSGNTATLTISGTQAEDEADYYCQTATVSSYWWVFGGGTKLTVLG

binding (human M-CSF (human)): binds
B3: Satine, Fab (Fab, V domains shown)
VH: B2 VH
VL: SYELTQPPSVSVSPGQTASITCSGDKLGQKYVSWYQQKPGQSPVLVISQDRKRPSGIPERFSGSNSGNTATLTISGTQAEDEADYYCQTWTHLQWVFGGGTKLTVLG

binding (human M-CSF (human)): binds
B4: Blanche, Fab (Fab, V domains shown)
VH: QVQLQQSGPGLVKPSQTLSLTCAISGDSVSSNSAAWNWIRQSPSRGLEWLGRTYYRSKWKHEYAMSVKSRITINPDTSKNQFSLQLNSVTPEDTAVYYCARDRYYYSAFDYWGQGTLVTVSS
VL: DIALTQPASVSGSPGQSITISCTGTSSDVGGYNSVSWYQQHPGKAPKLMIYAVSNRPSGVSNRFSGSKSGNTASLTISGLQAEDEADYYCASYDERFTRVFGGGTKLTVLG

binding (human M-CSF (human)): binds
B5: Maelle, Fab (Fab, V domains shown)
VH: B4 VH with D27E, S31T, N32S, H61K, M65Q
VL: B4 VL with D1Q, I2S, M49I

binding (human M-CSF (human)): binds
B6: Laurine, Fab (Fab, V domains shown)
VH: B4 VH with H61K, M65Q
VL: B4 VL

binding (human M-CSF (human)): binds
B7: Madeleine, Fab (Fab, V domains shown)
VH: B4 VH with H61K, M65Q
VL: B4 VL with D1Q, I2S

binding (human M-CSF (human)): binds
B8: Meriem, Fab (Fab, V domains shown)
VH: B4 VH with S31T, N32S, H61K, M65Q
VL: B4 VL with D1Q, I2S, M49I

binding [1]: binds
binding (human M-CSF (human)): binds
B9: Caline, Fab (Fab, V domains shown)
VH: B4 VH
VL: B4 VL with D1Q, I2S
